For assay [1], the target named is T1, Telomeric Repeat binding Factor 2 (TRF2), human, full-length recombinant with N-terminal His6-tag (human), Q15554.
T1 chain: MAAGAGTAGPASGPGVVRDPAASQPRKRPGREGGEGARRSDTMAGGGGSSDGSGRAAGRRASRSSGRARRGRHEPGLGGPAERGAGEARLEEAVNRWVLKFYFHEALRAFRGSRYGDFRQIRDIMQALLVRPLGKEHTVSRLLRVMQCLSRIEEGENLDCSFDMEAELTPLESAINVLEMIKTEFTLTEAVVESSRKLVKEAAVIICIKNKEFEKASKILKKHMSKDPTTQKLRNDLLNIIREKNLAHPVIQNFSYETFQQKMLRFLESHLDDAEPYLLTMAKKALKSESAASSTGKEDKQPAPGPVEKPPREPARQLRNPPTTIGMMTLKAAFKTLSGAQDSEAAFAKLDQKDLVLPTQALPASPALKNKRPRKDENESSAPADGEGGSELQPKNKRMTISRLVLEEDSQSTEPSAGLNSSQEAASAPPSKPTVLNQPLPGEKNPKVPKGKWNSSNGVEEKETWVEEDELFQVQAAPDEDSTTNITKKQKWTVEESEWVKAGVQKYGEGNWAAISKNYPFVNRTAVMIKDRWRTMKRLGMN
The experiment in a line: electrophoresis at mild denaturing conditions; data not shown; multimer distribution of bacterially produced proteins compared with proteins expressed in insect cells. The settings on record: remark: other sources report otherwise.

In assay [2] the target is T2, TRF2 produced in insect cells (human), Q15554.
T2 chain: T1 chain
The assay is described as above. Particulars: remark: other sources report otherwise.

In assay [3] the target is T3, Repressor activator protein 1 (Rap1), human, full-length recombinant with N-terminal His6-tag (human), Q9NYB0.
T3 chain: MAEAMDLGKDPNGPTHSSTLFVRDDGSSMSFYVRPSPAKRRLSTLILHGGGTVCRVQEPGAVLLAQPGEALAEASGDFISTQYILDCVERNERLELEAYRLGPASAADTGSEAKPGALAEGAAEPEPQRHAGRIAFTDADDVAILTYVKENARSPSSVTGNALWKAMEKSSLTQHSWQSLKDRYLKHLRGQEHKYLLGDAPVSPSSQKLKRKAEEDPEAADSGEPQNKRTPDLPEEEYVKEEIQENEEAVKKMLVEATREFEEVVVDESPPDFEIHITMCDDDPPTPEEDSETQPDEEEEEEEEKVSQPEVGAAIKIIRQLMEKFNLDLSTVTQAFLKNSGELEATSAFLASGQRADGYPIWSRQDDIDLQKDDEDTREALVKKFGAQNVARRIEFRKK
The description is as above. Particulars: remark: other sources report otherwise.

In assay [4] the target is Telomeric Repeat binding Factor 2 (TRF2), human, full-length recombinant with N-terminal His6-tag (human) (UniProt Q15554). The assay can be described thus: SPR; Rap1 allowed to bind to immobilized TRF2; ProteOn (BioRad), GLC and NLC sensor chips, PBST; detailed conditions in Supplementary Data; both purified.
Assay [5] concerns the target T4, Rap1 expressed in insect cells (human), Q9NYB0.
T4 chain: T3 chain
The assay can be described thus: electrophoresis at mild denaturing conditions; data not shown; multimer distribution of bacterially produced proteins compared with proteins expressed in insect cells. Particulars: remark: other sources report otherwise.

Our source for the binding values is paper PMC4357705, “Human Rap1 modulates TRF2 attraction to telomeric DNA”.

These are yes or no findings as the source states them, for the method shown. Some results given as binding are weak or reduced against the parent protein; the word gives no strength. For some assays here: Tags and fused reporters may be left off the sequences shown.

B1: Telomeric Repeat binding Factor 2 (TRF2), human, full-length recombinant with N-terminal His6-tag, Q15554 1-542 (protein)
chain: T1 chain
Take B1: the binding entry in assay [1] is on record as “binds”.

B2: TRF2 produced in insect cells, Q15554 1-542 (protein)
chain: T1 chain
Take B2: the binding entry in assay [2] is given as “binds”.

B3: Repressor activator protein 1 (Rap1), human, full-length recombinant with N-terminal His6-tag, Q9NYB0 1-399 (protein)
chain: T3 chain
For the molecule B3, in assay [3], the binding result is on record as “binds”.

B4: Repressor activator protein 1 (Rap1), human, full-length recombinant with N-terminal His6-tag (protein, UniProt Q9NYB0 1-399)
chain: T3 chain
As for B4, in assay [4], the binding result is listed as “binds”.

B5: Rap1 expressed in insect cells, Q9NYB0 1-399 (protein)
chain: T3 chain
Take B5: in assay [5], the binding result is recorded as “binds”.
